Measurements taken from PMC10926623.
No constants are given. Whether binding was seen depends on the method and setting. Binding seen in cells or lysates may run through a third protein. Some results given as binding are weak or reduced against the parent protein; the word gives no strength.

Amino acid sequences for entries named in this document (tags omitted).
UniProt P26446: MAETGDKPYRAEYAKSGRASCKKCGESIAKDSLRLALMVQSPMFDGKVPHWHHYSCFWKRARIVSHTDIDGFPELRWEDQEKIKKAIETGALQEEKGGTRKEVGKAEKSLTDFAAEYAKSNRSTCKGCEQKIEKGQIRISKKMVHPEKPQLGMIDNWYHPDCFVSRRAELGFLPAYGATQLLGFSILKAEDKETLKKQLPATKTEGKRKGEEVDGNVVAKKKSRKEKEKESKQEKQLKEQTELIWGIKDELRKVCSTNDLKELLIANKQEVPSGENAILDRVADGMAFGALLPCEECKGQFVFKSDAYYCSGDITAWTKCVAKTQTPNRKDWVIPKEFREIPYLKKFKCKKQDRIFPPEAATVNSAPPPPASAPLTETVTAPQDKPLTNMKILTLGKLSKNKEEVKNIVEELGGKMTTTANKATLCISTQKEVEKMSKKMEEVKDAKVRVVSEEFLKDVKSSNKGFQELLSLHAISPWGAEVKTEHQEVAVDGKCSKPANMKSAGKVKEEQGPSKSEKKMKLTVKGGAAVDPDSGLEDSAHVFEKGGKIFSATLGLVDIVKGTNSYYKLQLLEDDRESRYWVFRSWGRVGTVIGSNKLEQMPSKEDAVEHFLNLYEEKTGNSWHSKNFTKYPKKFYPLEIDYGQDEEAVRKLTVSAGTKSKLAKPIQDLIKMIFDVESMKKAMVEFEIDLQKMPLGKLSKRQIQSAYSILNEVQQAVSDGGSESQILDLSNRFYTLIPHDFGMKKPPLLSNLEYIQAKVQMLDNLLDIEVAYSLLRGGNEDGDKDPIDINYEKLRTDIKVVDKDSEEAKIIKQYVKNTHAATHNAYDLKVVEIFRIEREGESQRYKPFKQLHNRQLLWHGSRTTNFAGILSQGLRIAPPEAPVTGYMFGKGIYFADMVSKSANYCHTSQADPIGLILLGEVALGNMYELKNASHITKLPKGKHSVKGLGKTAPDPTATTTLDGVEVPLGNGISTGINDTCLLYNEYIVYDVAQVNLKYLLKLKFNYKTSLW
UniProt Q9YH06: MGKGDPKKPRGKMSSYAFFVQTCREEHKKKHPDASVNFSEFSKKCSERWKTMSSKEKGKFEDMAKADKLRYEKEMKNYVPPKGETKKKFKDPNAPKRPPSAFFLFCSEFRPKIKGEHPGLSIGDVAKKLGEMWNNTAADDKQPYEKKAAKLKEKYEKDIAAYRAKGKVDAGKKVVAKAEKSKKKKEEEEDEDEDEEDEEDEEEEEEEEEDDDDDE

Biological target: Poly(ADP-ribose) polymerase 1 (chicken (endogenous in primary granulosa cells)) (UniProt P26446)
Assay: co-IP; IP with PARP1 antibody from granulosa cells; Western blot with PARP1 and HMGB1 antibodies

High mobility group box 1 (from UniProt Q9YH06 1-215)
binding: binds
